Values from PubChem BioAssay AID720505 (Drosophila RNAi Screening Center, 2013).

Screen: 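Fly regulators or components of the CRAC channel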 (primary screen)
Cell system: Drosophila S2R+ cells
Knock-down reagent: long dsRNA against Drosophila genes
Conditions: thapsigargin (2 µM) in calcium-free buffer to empty internal stores, then 2 mM calcium added back
Measurement: 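Fluo-4 signal in 384-well plates read on a FLIPR after thapsigargin (2 µM, calcium-free) store depletion and 2 mM calcium add-back; unnormalised mean endpoint per well; screen run twice, selected wells retested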
Direction: calcium signal and retest calcium signal: higher = more calcium entry after store depletion
Rule for the call: 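Knock-downs counted as hits when calcium entry dropped relative to STIM1 positive and Rho1 negative controls present on each plate; roughly 1500 genes called, with reductions of differing size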
Calls: active = called as lowering calcium entry; inactive = not called
The screen tested about 20,000 reagents; below is an unselected part of those with a known target gene and a result. In the full data, about 2,100 (10%) were called active. 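Raw plate signals without normalisation; calls rest on control-based scores that were not deposited; replicate 2 separates called from uncalled poorly.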 Reagents against one gene are numbered here. Names joined by + are all predicted targets of the reagent. Not given: the amount of reagent, the time to read-out.

predicted target,dsRNA no.,"calcium signal, replicate 1","calcium signal, replicate 2","retest calcium signal, replicate 1","retest calcium signal, replicate 2",activity call
CG14024,1,88.7,149,,,inactive
CG14024,2,138,154,,,inactive
CG7639,1,159,206,,,inactive
rpk (ripped pocket),1,119,72.8,,,inactive
rpk (ripped pocket),2,96.1,116,,,inactive
CG4653,1,99,95.1,118,145,inactive
CG4653,2,82.7,99.3,,,inactive
Gyc76C + CG42637,1,105,85.2,,,inactive
"SdhB (Succinate dehydrogenase, subunit B (iron-sulfur))",1,177,122,135,100,inactive
"SdhB (Succinate dehydrogenase, subunit B (iron-sulfur))",2,129,120,,,inactive
Shmt (Serine hydroxymethyl transferase),1,206,135,,,inactive
CG1690,1,137,132,,,inactive
side-V (sidestep V),1,160,231,9531,176,inactive
side-V (sidestep V),2,145,158,,,inactive
side-V (sidestep V),3,65.7,257,,,inactive
Pebp1 (Phosphatidylethanolamine-binding protein 1),1,142,129,,,inactive
CG3104,1,211,92.1,,,inactive
snRNP-U1-70K (small ribonucleoprotein particle U1 subunit 70K),1,152,93.3,91.8,79.5,inactive
snRNP-U1-70K (small ribonucleoprotein particle U1 subunit 70K),2,73.2,252,,,inactive
kni (knirps),1,91.6,82.1,,,active
kni (knirps),2,102,112,,,inactive
CG10984,1,90.2,143,,,inactive
"Dnai2 (dynein, axonemal, intermediate chain 2)",1,47.4,60.7,,,active
CG17780 + CG17781,1,277,101,,,inactive
CG33003,1,80.2,161,,,inactive
MED11 (Mediator complex subunit 11),1,75.1,134,,,inactive
MED11 (Mediator complex subunit 11),2,87.5,109,,,inactive
Plod (procollagen lysyl hydroxylase),1,135,137,,,inactive
Plod (procollagen lysyl hydroxylase),2,84.7,86.7,,,inactive
CG12590,1,97.1,90.9,,,inactive
CCAP (Crustacean cardioactive peptide),1,103,131,,,inactive
CG11349,1,80,63,,,inactive
CG13658,1,217,159,,,inactive
CG2961,1,67.7,134,,,active
CG13931,1,75.2,98.6,,,inactive
CG6678,1,126,230,,,inactive
CG7135,1,90.6,153,,,inactive
Hers + amn,1,59.4,124,,,active
rumpel,1,319,77.5,,,inactive
CG18234,1,66.8,148,,,inactive
CG6142,1,221,156,,,inactive
Ssadh (Succinic semialdehyde dehydrogenase),1,97.2,93.9,,,inactive
Cisd2 (CDGSH iron sulfur domain 2),1,128,116,,,inactive
edl (ETS-domain lacking),1,73.2,132,,,active
CG6961 + CG18259,1,86.2,93.6,,,inactive
CG6961 + CG18259,2,157,128,,,inactive
CG6209,1,108,225,,,inactive
CG4701,1,122,138,,,inactive
Amy-p (Amylase proximal),1,169,158,,,inactive
CR11235 (pseudo),1,189,99,,,inactive
CCT5 (Chaperonin containing TCP1 subunit 5),1,224,194,,,inactive
Drep1 (DNA fragmentation factor-related protein 1),1,114,187,,,inactive
p38a (p38a MAP kinase),1,62.5,187,,,active
fj (four-jointed),1,185,155,,,inactive
CG10512,1,110,93.1,,,inactive
cv-c (crossveinless c),1,80.7,116,,,inactive
cv-c (crossveinless c),2,93.7,114,,,inactive
cv-c (crossveinless c),3,102,95.9,,,inactive
cv-c (crossveinless c),4,99.7,113,,,inactive
cv-c (crossveinless c),5,127,118,,,inactive
cv-c (crossveinless c),6,104,134,,,inactive
cv-c (crossveinless c),7,125,131,,,inactive
Ugt307A1 (UDP-glycosyltransferase family 307 member A1),1,186,94.8,,,inactive
nito (spenito),1,163,107,,,inactive
key (kenny),1,66.3,175,,,active
Cpr47Ee (Cuticular protein 47Ee),1,54.8,153,,,active
Cpr47Ee (Cuticular protein 47Ee),2,101,101,,,inactive
CG12035,1,162,132,,,inactive
Listericin,1,107,138,,,inactive
ND-20L (NADH dehydrogenase (ubiquinone) 20 kDa subunit-like),1,156,153,,,inactive
CG4004,1,179,117,,,inactive
CG4004,2,61.4,88.1,,,active
CG32647,1,115,106,,,inactive
CG32647,2,81,98.5,,,inactive
stet (stem cell tumor),1,92.5,111,,,inactive
stet (stem cell tumor),2,65,134,,,inactive
Tsp42El (Tetraspanin 42El),1,154,98.7,,,inactive
myd (mayday),1,155,194,,,inactive
myd (mayday),2,118,135,,,inactive
CG13438,1,71.5,125,,,inactive
CG17145,1,68.5,114,,,active
CG2233,1,86.2,93.5,,,inactive
CG4594,1,108,139,,,inactive
